No constants are given. Whether binding was seen depends on the method and setting. Binding seen in cells or lysates may run through a third protein. Here binding means that the protein was enriched with, or labelled near, the bait; the list need not be complete.
Biological target: hTTLL12 expressed with Vaccinia virus Ankara strain (MVA) vectors (human) (UniProt Q14166)
Test: affinity purification with mass spectrometry; tagged hTTLL12 expressed in BHK21 cells with MVA vaccinia vectors, purified by affinity chromatography; EEF1A1 in the preparation identified by mass spectrometry and WB

Protein sequences, listed by entry. Tags and fused reporters are not part of them.
UniProt Q14166: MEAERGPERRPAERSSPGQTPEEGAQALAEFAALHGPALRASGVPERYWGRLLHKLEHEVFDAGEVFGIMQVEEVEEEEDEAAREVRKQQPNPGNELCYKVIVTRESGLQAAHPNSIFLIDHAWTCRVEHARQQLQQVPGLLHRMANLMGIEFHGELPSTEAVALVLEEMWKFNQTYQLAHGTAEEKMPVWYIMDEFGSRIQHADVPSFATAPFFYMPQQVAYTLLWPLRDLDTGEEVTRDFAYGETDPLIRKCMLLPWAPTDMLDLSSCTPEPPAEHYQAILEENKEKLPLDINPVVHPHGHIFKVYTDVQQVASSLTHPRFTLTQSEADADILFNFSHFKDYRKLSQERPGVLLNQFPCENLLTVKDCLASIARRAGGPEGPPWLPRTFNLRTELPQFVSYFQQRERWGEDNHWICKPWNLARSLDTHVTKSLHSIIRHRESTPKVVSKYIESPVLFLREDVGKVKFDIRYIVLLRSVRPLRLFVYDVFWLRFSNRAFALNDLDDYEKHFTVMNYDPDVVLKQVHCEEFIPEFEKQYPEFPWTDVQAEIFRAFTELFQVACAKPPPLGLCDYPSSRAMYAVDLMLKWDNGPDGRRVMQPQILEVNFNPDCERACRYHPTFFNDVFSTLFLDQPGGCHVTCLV
UniProt P62629: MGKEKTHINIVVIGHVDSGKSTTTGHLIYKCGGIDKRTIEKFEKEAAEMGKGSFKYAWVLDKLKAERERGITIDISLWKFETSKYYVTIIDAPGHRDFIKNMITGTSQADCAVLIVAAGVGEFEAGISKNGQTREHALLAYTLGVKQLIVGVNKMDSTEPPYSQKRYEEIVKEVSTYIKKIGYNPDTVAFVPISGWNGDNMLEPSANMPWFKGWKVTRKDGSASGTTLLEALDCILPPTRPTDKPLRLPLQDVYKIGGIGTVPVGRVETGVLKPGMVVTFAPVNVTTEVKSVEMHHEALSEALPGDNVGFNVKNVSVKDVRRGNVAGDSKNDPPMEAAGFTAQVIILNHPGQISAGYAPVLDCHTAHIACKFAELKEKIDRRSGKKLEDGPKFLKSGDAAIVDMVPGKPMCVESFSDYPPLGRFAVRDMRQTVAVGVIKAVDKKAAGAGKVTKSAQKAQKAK

binding: binds
Substance: EEF1A1 (endogenous in BHK21 cells) (from UniProt P62629 1-462)

Reference: publication PMC3520985
